# Measurements from paper PMC7868385.
# Sequences of proteins named here, by UniProt entry; tags and fusion partners are left off. Residues count along the entry.
# UniProt P0A9P0: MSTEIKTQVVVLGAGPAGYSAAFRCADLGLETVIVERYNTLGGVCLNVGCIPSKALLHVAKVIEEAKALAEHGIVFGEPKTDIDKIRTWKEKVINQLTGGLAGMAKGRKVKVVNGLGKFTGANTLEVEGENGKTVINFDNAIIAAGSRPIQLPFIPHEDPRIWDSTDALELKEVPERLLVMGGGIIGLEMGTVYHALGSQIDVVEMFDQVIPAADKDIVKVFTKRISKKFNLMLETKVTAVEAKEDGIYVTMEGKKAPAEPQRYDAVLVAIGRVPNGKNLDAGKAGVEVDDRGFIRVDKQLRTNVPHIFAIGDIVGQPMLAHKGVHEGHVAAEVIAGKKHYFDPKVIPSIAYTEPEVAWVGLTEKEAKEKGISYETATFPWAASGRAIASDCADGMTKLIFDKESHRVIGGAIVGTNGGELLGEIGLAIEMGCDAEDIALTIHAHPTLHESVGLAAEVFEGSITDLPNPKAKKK
# UniProt P08603, residues 19-1231: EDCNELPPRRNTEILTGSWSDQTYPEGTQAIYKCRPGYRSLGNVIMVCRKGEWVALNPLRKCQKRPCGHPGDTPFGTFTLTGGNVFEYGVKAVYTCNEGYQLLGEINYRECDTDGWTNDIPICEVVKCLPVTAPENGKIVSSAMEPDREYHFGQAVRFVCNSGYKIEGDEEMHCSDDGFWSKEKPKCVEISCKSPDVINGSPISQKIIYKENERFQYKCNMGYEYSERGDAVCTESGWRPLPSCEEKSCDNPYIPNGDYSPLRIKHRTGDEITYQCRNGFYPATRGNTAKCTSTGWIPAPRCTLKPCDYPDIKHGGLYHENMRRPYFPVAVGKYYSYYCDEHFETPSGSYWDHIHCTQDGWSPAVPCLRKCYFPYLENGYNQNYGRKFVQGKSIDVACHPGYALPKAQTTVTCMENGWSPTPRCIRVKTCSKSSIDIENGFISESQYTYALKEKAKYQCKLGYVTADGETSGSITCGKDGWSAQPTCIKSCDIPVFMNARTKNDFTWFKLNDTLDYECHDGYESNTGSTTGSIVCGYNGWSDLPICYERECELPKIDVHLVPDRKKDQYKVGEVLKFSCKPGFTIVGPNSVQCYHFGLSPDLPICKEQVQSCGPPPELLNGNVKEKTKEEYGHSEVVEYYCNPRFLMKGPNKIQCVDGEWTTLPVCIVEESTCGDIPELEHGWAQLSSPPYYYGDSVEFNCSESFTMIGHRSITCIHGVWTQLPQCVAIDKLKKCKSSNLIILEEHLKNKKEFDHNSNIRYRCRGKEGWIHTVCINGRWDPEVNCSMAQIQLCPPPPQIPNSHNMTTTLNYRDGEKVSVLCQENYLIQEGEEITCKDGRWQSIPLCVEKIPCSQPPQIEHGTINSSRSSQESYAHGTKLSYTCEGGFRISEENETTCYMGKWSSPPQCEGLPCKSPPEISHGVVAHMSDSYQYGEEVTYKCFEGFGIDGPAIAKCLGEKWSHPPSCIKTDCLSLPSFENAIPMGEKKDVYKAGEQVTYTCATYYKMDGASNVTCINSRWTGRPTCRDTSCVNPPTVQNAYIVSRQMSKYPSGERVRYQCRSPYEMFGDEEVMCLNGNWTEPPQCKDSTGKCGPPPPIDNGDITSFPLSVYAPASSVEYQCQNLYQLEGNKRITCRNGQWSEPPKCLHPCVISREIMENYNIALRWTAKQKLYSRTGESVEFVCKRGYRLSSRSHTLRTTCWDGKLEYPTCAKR
# No constants are given. Whether binding was seen depends on the method and setting. For some assays here: In cells and extracts the contact can be indirect. Some results given as binding are weak or reduced against the parent protein; the word gives no strength. For some assays here: Tags and fused reporters may be left off the sequences shown.
# Key:
# [1] = molecular target: T1, His-tag recombinant phosphoglycerate kinase (Pgk) (E. coli ExPEC strain RS218) (UniProt P0A799); test: condition: 0.1, 1.0, 10, and 20 μg/ml coated; 10% human serum; ELISA; His-tag recombinant proteins or BSA (0.1, 1.0, 10, and 20 μg/ml, 100 μl) immobilized on the 96-well plate overnight at 4°C; 10% human serum added, 37°C for 1 h; bound FH detected with anti-FH monoclonal antibody, OD450; only the target purified
# T1 sequence: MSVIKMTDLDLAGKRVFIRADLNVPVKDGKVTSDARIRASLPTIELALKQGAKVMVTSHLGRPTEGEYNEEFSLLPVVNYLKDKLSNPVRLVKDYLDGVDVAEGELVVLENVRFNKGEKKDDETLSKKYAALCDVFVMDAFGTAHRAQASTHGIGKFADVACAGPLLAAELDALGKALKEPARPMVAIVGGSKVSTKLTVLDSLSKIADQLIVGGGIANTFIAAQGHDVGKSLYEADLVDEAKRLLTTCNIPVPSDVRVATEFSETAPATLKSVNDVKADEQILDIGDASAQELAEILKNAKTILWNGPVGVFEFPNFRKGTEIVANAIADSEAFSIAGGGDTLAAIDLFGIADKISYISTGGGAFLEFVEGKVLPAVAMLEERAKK
# [2] = molecular target: T2, GST-fusion protein of phosphoenolpyruvate synthase (PpsA) (E. coli ExPEC strain RS218) (UniProt P23538); test: pull-down; GST tag or GST-fusion protein on glutathione magnetic beads, washed with PBST, incubated with 10% human serum at 37°C for 1 h; Western blotting with anti-FH and anti-GST antibodies; only the target purified
# T2 sequence: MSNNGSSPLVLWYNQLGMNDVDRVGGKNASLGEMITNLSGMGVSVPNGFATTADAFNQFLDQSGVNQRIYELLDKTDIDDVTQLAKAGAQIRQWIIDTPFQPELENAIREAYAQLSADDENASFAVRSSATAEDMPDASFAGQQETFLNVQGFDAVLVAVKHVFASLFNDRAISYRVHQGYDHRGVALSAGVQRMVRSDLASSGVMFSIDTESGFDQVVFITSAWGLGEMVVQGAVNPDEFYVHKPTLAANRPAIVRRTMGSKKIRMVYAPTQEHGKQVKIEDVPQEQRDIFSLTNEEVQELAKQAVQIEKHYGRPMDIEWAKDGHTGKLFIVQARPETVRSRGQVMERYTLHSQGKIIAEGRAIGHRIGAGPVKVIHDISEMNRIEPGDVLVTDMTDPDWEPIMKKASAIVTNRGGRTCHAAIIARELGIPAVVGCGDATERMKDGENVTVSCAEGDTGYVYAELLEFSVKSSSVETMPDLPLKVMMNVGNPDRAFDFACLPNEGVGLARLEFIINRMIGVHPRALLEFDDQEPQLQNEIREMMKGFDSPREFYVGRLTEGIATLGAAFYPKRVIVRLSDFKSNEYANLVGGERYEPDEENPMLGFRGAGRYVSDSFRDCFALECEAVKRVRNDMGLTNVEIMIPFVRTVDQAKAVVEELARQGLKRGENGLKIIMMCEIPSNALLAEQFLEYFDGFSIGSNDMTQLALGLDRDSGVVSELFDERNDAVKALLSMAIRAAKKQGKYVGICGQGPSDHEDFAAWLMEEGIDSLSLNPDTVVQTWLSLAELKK
# [3] = molecular target: T3, GST-fusion protein of fructose-bisphosphate aldolase (FbaA) (E. coli ExPEC strain RS218) (UniProt P0AB71); test: as above
# T3 sequence: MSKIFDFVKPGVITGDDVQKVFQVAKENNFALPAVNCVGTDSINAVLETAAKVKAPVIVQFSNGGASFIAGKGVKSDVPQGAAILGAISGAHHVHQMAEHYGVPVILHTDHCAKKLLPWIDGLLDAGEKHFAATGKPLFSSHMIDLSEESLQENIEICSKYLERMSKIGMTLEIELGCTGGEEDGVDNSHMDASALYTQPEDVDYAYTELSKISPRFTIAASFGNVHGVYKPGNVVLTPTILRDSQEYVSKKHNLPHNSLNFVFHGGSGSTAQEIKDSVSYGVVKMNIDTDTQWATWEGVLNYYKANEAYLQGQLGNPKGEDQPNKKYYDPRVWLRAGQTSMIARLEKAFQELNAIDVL
# [4] = molecular target: T4, GST-fusion protein of fumarate reductase flavoprotein subunit (FrdA) (E. coli ExPEC strain RS218) (UniProt P00363); test: as above
# T4 sequence: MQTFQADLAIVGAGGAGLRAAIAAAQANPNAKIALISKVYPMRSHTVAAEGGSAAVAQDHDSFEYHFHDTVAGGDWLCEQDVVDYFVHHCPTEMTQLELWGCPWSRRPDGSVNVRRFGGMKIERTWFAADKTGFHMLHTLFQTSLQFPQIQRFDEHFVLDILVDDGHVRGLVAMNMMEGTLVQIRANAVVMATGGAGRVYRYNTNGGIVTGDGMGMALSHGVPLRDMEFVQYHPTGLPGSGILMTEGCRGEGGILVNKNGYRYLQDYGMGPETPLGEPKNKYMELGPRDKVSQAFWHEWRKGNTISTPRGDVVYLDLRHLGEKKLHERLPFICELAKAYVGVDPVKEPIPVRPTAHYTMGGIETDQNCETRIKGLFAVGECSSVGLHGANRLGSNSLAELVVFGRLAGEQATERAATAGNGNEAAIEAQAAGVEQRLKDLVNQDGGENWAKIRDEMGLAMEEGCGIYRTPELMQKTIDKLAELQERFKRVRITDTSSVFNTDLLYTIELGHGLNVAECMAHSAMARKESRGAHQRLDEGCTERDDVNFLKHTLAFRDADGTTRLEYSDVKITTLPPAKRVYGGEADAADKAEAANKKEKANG
# [5] = molecular target: T5, GST-fusion protein of phosphoglycerate kinase (Pgk) (E. coli ExPEC strain RS218) (UniProt P0A799); test: as above
# T5 sequence: T1 sequence
# [6] = molecular target: GST-fusion protein of dihydrolipoamide dehydrogenase (LpdA) (E. coli ExPEC strain RS218) (UniProt P0A9P0); test: as above
# [7] = molecular target: T6, GST-fusion protein of L-lactate dehydrogenase (LDH) (E. coli ExPEC strain RS218) (UniProt P33232); test: as above
# T6 sequence: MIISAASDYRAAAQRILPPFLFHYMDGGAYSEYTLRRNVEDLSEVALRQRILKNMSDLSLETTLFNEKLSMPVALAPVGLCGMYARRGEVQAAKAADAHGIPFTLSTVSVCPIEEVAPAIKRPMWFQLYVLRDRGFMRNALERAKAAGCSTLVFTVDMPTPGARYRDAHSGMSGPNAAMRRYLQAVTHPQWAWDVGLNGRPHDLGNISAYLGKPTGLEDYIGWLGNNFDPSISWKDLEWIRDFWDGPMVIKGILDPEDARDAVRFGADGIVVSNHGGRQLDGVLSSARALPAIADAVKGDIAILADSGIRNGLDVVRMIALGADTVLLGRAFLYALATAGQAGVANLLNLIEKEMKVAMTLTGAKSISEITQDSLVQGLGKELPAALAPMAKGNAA
# [8] = molecular target: T2, GST-fusion protein of phosphoenolpyruvate synthase (PpsA) (E. coli ExPEC strain RS218); test: FH binding inhibition assay (whole-bacteria ELISA); glutathione magnetic beads coupled with GST-fusion proteins or GST tag (2 μg) co-incubated with ExPEC RS218 (1.0 × 10^7 CFUs) in 10% human serum at 37°C for 1 h; beads removed by a magnet; FH left on the bacteria detected by ELISA, OD450; only the target purified
# [9] = molecular target: T3, GST-fusion protein of fructose-bisphosphate aldolase (FbaA) (E. coli ExPEC strain RS218); test: as above
# [10] = molecular target: T4, GST-fusion protein of fumarate reductase flavoprotein subunit (FrdA) (E. coli ExPEC strain RS218); test: as above
# [11] = molecular target: GST-fusion protein of dihydrolipoamide dehydrogenase (LpdA) (E. coli ExPEC strain RS218) (UniProt P0A9P0); test: as above
# [12] = molecular target: T6, GST-fusion protein of L-lactate dehydrogenase (LDH) (E. coli ExPEC strain RS218); test: as above
# [13] = molecular target: T7, His-tag recombinant L-lactate dehydrogenase (LDH) (E. coli ExPEC strain RS218) (UniProt P33232); test: ELISA; His-tag recombinant proteins or BSA (0.1, 1.0, 10, and 20 μg/ml, 100 μl) immobilized on the 96-well plate overnight at 4°C; 10% human serum added, 37°C for 1 h; bound FH detected with anti-FH monoclonal antibody, OD450; only the target purified
# T7 sequence: T6 sequence
# [14] = molecular target: T8, His-tag recombinant fumarate reductase flavoprotein subunit (FrdA) (E. coli ExPEC strain RS218) (UniProt P00363); test: as above
# T8 sequence: T4 sequence
# [15] = molecular target: His-tag recombinant dihydrolipoamide dehydrogenase (LpdA) (E. coli ExPEC strain RS218) (UniProt P0A9P0); test: as above
# [16] = molecular target: T9, His-tag recombinant phosphoenolpyruvate synthase (PpsA) (E. coli ExPEC strain RS218) (UniProt P23538); test: as above
# T9 sequence: T2 sequence
# [17] = molecular target: T10, His-tag recombinant fructose-bisphosphate aldolase (FbaA) (E. coli ExPEC strain RS218) (UniProt P0AB71); test: as above
# T10 sequence: T3 sequence
substance,measurement,setting,value
Factor H in human serum (from UniProt P08603 19-1231),binding,[1],no binding
same,binding,[2],binds
same,binding,[3],binds
same,binding,[4],binds
same,binding,[5],no binding (tested: 10% human serum)
same,binding,[6],binds
same,binding,[7],binds
same,binding,[8],binds
same,binding,[9],binds
same,binding,[10],binds
same,binding,[11],binds
same,binding,[12],binds
same,binding,[13],binds
same,binding,[14],binds
same,binding,[15],binds
same,binding,[16],binds
same,binding,[17],binds
